Consider 20 compounds from the supplement of paper PMC4604168 (melanoma cell lines).

Molecules are shown by their SMILES. Some of the results follow. Repeats are few or missing, and single values can be far off.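 Imaging used 1,536-well plates; nuclei positive for cleaved PARP by antibody were divided by total DNA-stained nuclei to yield the apoptosis fraction. Doses for screening kept most cells viable, and cell lines differ markedly in resting and induced cleaved-PARP levels.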

The assay relates to SkMel2. Description: cleaved PARP positive nuclei fraction relative to DMSO control; melanoma cells; higher = more apoptosis. The settings on record: library dose: low library concentration; 72 h.
Take `O=C(O)[C@@H]1[O][Sb](=[O])([O][Sb]2(=[O])[O][C@H]([C@H](O)CO)[C@H](O)[C@H](C(=O)O)[O]2)[O][C@H]([C@H](O)CO)[C@@H]1O` (stereo not given in full) [stibogluconate] + CN(NC(=O)CC(=O)NN(C)C(=S)c1ccccc1)C(=S)c1ccccc1 [STA4783] (first compound 2 µM, partner dose 0.006 µM): the “cleaved PARP positive nuclei fraction” value was 89.3%.

Consider `CCCS(=O)(=O)Nc1ccc(F)c(C(=O)c2c[nH]c3ncc(Cl)cc23)c1F` + COc1ccc(COc2ccc(Cc3cnc(N)nc3N)cc2OC)cc1 [GW2580] (first compound 0.08 µM, partner dose 1 µM), for which the “cleaved PARP positive nuclei fraction” value was determined as 76.2%.

Regarding `Nc1ncn([C@H]2C[C@H](O)[C@@H](CO)O2)c(=O)n1` [decitabine] + CCc1ccc(CCOc2ccc(CC3SC(=O)NC3=O)cc2)nc1 [pioglitazone] (first compound 0.1 µM, partner dose 2 µM), the “cleaved PARP positive nuclei fraction” value was 60.6%.

Take `CN1CCN(c2ccc3nc(-c4c(N)c5c(F)cccc5[nH]c4=O)[nH]c3c2)CC1` [Dovitinib] + CN(NC(=O)CC(=O)NN(C)C(=S)c1ccccc1)C(=S)c1ccccc1 [STA4783] (first compound 0.1 µM, partner dose 0.006 µM): the “cleaved PARP positive nuclei fraction” value stood at 43.6%.

For `Nc1ccn([C@@H]2O[C@H](CO)[C@@H](O)C2(F)F)c(=O)n1` [gemcitabine] + O=c1cc(-c2cccc3c2Sc2ccccc2S3)oc(N2CCOCC2)c1 [KU55933] (first compound 0.0004 µM, partner dose 1 µM), the “cleaved PARP positive nuclei fraction” value is 159%.

Turning to `CCCS(=O)(=O)Nc1ccc(F)c(C(=O)c2c[nH]c3ncc(Cl)cc23)c1F` + COc1cc(Nc2ncc(F)c(Nc3ccc4c(n3)NC(=O)C(C)(C)O4)n2)cc(OC)c1OC [Tamatinib] (first compound 0.08 µM, partner dose 0.4 µM), the “cleaved PARP positive nuclei fraction” value is 48.4%.

As for `Cn1c(=O)n(-c2ccc(C(C)(C)C#N)cc2)c2c3cc(-c4cnc5ccccc5c4)ccc3ncc21` + Oc1cc(-c2nc(-c3ccccc3)[nH]c2-c2ccncc2)ccc1Cl [L779450] (first compound 0.004 µM, partner dose 0.2 µM), the “cleaved PARP positive nuclei fraction” value was 102%.

Regarding `CN1CCN(c2ccc3nc(-c4c(N)c5c(F)cccc5[nH]c4=O)[nH]c3c2)CC1` [Dovitinib] + COc1ccc(COc2ccc(Cc3cnc(N)nc3N)cc2OC)cc1 [GW2580] (first compound 0.1 µM, partner dose 1 µM), the “cleaved PARP positive nuclei fraction” value is 22.2%.

Turning to `C=C(c1ccc(C(=O)O)cc1)c1cc2c(cc1C)C(C)(C)CCC2(C)C` [Bexarotene] + CCc1ccc(CCOc2ccc(CC3SC(=O)NC3=O)cc2)nc1 [pioglitazone] (first compound 2 µM, partner dose 2 µM), the “cleaved PARP positive nuclei fraction” value was 176%.

On to `Cc1cc(Nc2cc(N3CCN(C)CC3)nc(/C=C/c3ccccc3)n2)n[nH]1` + CC(C)CCN1c2nc(Nc3cc(F)c(O)c(F)c3)ncc2N(C)C(=O)C1C [BID1870] (first compound 0.04 µM, partner dose 0.2 µM), for which the “cleaved PARP positive nuclei fraction” value stood at 80.6%.

Take `CN1CCN(c2ccc3nc(-c4c(N)c5c(F)cccc5[nH]c4=O)[nH]c3c2)CC1` [Dovitinib] + CN(C)S(=O)(=O)c1ccc2c(c1)/C(=C/c1cc3c([nH]1)CCCC3)C(=O)N2 [SU6656] (first compound 0.1 µM, partner dose 0.4 µM): the “cleaved PARP positive nuclei fraction” value worked out at 65%.

With `CC(C)C[C@H](NC(=O)[C@H](Cc1ccccc1)NC(=O)c1cnccn1)B(O)O` [Bortezomib] + COc1cc2ncnc(Nc3ccc(Oc4ccccc4)cc3)c2cc1OC [SrcI1] (first compound 0.001 µM, partner dose 2 µM), the “cleaved PARP positive nuclei fraction” value came to 149%.

Consider `CC(C)C[C@H](NC(=O)[C@H](Cc1ccccc1)NC(=O)c1cnccn1)B(O)O` [Bortezomib] + C[C@@H]1CCN(C(=O)CC#N)C[C@@H]1N(C)c1ncnc2[nH]ccc12 [CP690550] (first compound 0.001 µM, partner dose 1 µM), for which the “cleaved PARP positive nuclei fraction” value turned out to be 223%.

Turning to `CNC(=O)c1cc(Oc2ccc(NC(=O)Nc3ccc(Cl)c(C(F)(F)F)c3)cc2)ccn1` [sorafenib] + c1cc(-c2cnn3cc(-c4ccc(OCCN5CCCCC5)cc4)cnc23)ccn1 [Dorsomorphin] (first compound 0.4 µM, partner dose 0.4 µM), the “cleaved PARP positive nuclei fraction” value is 87.3%.

On to `O=C(O)c1ccc2c(c1)nc(Nc1cccc(Cl)c1)c1ccncc12` + O=C(Nc1cccc(Cl)c1)Nc1ncc(CCNc2ncnc3ccsc23)s1 [SNS314] (first compound 0.4 µM, partner dose 0.0008 µM), for which the “cleaved PARP positive nuclei fraction” value was 124%.

With `CCCS(=O)(=O)Nc1ccc(F)c(C(=O)c2c[nH]c3ncc(Cl)cc23)c1F` + CCc1ccc(CCOc2ccc(CC3SC(=O)NC3=O)cc2)nc1 [pioglitazone] (first compound 0.08 µM, partner dose 2 µM), the “cleaved PARP positive nuclei fraction” value is 89.7%.

Regarding `O=C(O)c1ccc2c(c1)nc(Nc1cccc(Cl)c1)c1ccncc12` + CC(C)(C)c1cnc(CSc2cnc(NC(=O)C3CCNCC3)s2)o1 [SNS-032] (first compound 0.4 µM, partner dose 0.01 µM), the “cleaved PARP positive nuclei fraction” value turned out to be 110%.

For the compound `CN1CCN(c2ccc3nc(-c4c(N)c5c(F)cccc5[nH]c4=O)[nH]c3c2)CC1` [Dovitinib] + NC(=O)Nc1cc(-c2cccc(F)c2)sc1C(=O)N[C@H]1CCCNC1 [AZD7762] (first compound 0.1 µM, partner dose 0.02 µM), the “cleaved PARP positive nuclei fraction” value worked out at 56.5%.

In the case of `O=C(O)[C@@H]1[O][Sb](=[O])([O][Sb]2(=[O])[O][C@H]([C@H](O)CO)[C@H](O)[C@H](C(=O)O)[O]2)[O][C@H]([C@H](O)CO)[C@@H]1O` (stereo not given in full) [stibogluconate] + OCCn1cc(-c2cnc3nnn(Cc4ccc5ncccc5c4)c3n2)cn1 [PF04217903] (first compound 2 µM, partner dose 1 µM), the “cleaved PARP positive nuclei fraction” value was 81.9%.

Regarding `CS(=O)(=O)CCNCc1ccc(-c2ccc3ncnc(Nc4ccc(OCc5cccc(F)c5)c(Cl)c4)c3c2)o1` [lapatinib] + COc1ccc(COc2ccc(Cc3cnc(N)nc3N)cc2OC)cc1 [GW2580] (first compound 0.8 µM, partner dose 1 µM), the “cleaved PARP positive nuclei fraction” value amounted to 39.2%.
